The text below walks through data of PMC9649694.

The chains behind the UniProt entries cited, without tags or fusion partners. Where a name states a change or a piece, a line headed by the entry shows the natural chain unless it says otherwise. Residues count along the entry.
UniProt Q9H1Y0: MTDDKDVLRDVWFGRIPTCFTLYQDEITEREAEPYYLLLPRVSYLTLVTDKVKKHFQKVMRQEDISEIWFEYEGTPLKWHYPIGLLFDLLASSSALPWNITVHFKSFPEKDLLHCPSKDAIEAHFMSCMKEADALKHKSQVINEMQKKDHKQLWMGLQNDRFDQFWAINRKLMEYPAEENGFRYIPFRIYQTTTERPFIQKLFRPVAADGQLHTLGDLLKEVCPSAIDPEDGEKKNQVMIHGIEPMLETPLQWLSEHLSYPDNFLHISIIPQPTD
UniProt O94817: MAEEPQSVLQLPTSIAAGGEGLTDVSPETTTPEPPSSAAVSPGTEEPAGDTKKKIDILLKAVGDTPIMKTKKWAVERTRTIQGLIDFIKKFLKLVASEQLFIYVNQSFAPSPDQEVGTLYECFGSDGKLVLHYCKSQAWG
UniProt O14818: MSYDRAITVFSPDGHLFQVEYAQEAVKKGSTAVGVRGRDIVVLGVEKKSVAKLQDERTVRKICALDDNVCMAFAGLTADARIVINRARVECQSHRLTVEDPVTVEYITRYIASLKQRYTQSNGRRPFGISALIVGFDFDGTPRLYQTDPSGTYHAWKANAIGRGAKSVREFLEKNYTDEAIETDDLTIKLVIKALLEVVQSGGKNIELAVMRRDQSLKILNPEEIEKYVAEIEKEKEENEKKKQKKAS
UniProt Q99J83: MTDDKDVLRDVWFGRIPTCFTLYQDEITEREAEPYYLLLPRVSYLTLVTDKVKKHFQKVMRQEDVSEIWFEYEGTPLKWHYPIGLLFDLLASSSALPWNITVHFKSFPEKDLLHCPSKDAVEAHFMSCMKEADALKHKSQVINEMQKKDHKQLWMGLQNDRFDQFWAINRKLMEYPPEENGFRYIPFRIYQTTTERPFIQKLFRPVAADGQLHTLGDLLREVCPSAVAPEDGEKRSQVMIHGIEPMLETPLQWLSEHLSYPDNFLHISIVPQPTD
UniProt Q9CQY1: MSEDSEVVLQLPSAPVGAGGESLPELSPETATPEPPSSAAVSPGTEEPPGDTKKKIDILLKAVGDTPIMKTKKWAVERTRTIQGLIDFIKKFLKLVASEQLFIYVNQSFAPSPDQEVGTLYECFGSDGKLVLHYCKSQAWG
UniProt O60260: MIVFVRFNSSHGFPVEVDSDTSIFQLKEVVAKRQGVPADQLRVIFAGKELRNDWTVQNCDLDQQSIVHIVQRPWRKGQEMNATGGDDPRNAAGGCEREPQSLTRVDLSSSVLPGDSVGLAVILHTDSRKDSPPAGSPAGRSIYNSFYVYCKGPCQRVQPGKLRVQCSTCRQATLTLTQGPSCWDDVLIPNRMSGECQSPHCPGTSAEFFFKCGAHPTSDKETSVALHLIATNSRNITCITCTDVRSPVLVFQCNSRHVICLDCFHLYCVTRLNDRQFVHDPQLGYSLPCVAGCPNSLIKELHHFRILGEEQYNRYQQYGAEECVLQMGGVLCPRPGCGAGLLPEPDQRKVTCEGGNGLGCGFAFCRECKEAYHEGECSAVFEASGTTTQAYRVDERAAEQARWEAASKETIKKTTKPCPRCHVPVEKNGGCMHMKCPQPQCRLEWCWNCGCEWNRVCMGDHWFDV
UniProt Q9BXM7, residues 78-581: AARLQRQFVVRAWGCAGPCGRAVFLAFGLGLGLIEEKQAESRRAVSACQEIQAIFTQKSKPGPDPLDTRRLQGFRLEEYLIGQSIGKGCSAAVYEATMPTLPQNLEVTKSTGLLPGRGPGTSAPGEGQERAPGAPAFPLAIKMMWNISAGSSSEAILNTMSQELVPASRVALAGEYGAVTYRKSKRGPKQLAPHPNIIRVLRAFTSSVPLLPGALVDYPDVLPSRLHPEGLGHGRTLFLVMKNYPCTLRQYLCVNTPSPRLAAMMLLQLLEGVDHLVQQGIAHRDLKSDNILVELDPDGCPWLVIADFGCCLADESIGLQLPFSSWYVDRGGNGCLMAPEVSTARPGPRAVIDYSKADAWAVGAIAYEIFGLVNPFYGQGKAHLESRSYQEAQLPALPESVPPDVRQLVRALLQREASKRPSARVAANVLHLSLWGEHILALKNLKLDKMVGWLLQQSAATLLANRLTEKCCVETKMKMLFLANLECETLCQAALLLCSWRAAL
UniProt Q9Z2U0: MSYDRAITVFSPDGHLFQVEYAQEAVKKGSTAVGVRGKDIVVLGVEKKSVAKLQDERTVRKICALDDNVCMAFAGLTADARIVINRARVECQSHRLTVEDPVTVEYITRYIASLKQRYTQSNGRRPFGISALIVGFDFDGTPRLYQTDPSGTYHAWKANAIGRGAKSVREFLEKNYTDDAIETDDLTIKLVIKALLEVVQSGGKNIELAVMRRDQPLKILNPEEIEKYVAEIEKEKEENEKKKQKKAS
UniProt P21796: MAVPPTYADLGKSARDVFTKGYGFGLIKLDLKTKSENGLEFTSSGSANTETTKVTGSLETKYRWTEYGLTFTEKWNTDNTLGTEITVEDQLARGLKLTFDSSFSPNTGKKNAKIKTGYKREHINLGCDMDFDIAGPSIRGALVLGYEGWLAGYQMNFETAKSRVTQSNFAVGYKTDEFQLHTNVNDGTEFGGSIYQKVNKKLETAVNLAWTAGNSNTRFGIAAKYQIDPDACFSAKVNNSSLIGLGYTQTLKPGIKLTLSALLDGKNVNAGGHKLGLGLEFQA

These are yes or no findings as the source states them, for the method shown. For part of these data: Binding seen in cells or lysates may run through a third protein. Some binding calls cover weakened binding; strength is not graded here.

Assay [1] has as its target T1, ATG5-12 (endogenous ATG12-ATG5 conjugate of HEK 293 T cells) (human (endogenous in HEK 293 T)) (UniProt Q9H1Y0+O94817). As to the kind of experiment: co-IP; immunoprecipitation of endogenous ATG5 from HA-PARK2 expressing HEK 293 T cells after DMSO or CCCP (10 μM) for 12 h.
A further assay addresses FLAG-PSMA7 (UniProt O14818). Description: co-IP; HEK 293 T cells co-transfected with MYC-PARK2 and/or FLAG-PSMA7, treated with STAURO (1 μM), CCCP (10 μM) or DMSO for 12 h; immunoprecipitation using Flag beads.
The target of assay [2] is ATG5 (endogenous, SH-SY5Y cells) (human (endogenous in SH-SY5Y)) (UniProt Q9H1Y0). Description: co-IP; endogenous proteins in HT-22 and SH-SY5Y cells; with and without mitochondrial stress in HT-22; precipitating antibody not stated.
Assay [3] concerns the target T1, ATG5-12 (endogenous ATG12-ATG5 conjugate of HEK 293 T cells) (human (endogenous in HEK 293 T)). Description: SEC; gel filtration of total cell lysates and of mitochondria-free cytosolic fractions of PARK2 overexpressing cells treated with DMSO or CCCP; RIPA buffer, 4 °C; fractions immunoblotted. For orientation: SEC sorts molecules by how far they enter the pores of the column.

Assay [4] shares this target. As to the kind of experiment: SEC; gel filtration of mitochondrial lysates of YFP-PARK2 expressing HEK 293 T cells treated with DMSO or 10 μM CCCP for 12 h; RIPA buffer, 4 °C; fractions immunoblotted.
Assay [5] shares this target. As to the kind of experiment: co-IP; endogenous proteins; ATG5-IP from lysates of HEK 293 T or MEF cells under control condition; RIPA lysate, antibody on protein A or G agarose, overnight at 4 °C.
Assay [6] has the same target. As to the kind of experiment: co-IP; endogenous proteins; ATG5-IP from lysates of HEK 293 T or MEF cells treated with CCCP; RIPA lysate, antibody on protein A or G agarose, overnight at 4 °C.
Assay [7] has as its target T2, ATG5-12 (endogenous ATG12-ATG5 conjugate of MEF cells) (mouse (endogenous in MEF)) (UniProt Q99J83+Q9CQY1). Description: co-IP; endogenous proteins; ATG5-IP from lysates of HEK 293 T or MEF cells under control condition; RIPA lysate, antibody on protein A or G agarose, overnight at 4 °C.
For assay [8], the target named is T2, ATG5-12 (endogenous ATG12-ATG5 conjugate of MEF cells) (mouse (endogenous in MEF)). As to the kind of experiment: co-IP; endogenous proteins; ATG5-IP from lysates of HEK 293 T or MEF cells treated with CCCP; RIPA lysate, antibody on protein A or G agarose, overnight at 4 °C.
Assay [9] deals with ATG5 (full-length human Atg5 cDNA in the pGBKT7 bait vector) (human) (UniProt Q9H1Y0). As to the kind of experiment: two-hybrid; full-length human Atg5 in pGBKT7 as bait screened against a thymus cDNA library in AH109 yeast; selection without histidine, adenine, tryptophan and leucin.
Assay [10] has as its target ATG5, full length, overexpressed in HEK293T cells (Fig. S1A and B) (human) (UniProt Q9H1Y0). As to the kind of experiment: co-IP; HEK293T cells overexpressing the full-length proteins (Fig. S1A); also after STAURO or CCCP treatment (Fig. S1B); which protein was precipitated not given.

For HA-PARK2 (from UniProt O60260 1-465), in [1], the binding entry was “binds”.

Regarding MYC-PARK2 (from UniProt O60260 1-465), the binding entry with FLAG-PSMA7 is given as “binds”.

Regarding “PARK2 (endogenous, SH-SY5Y cells) (from UniProt O60260 1-465)”, the binding entry in assay [2] was “binds”.

Turning to “PARK2, overexpressed (gel filtration of total cell lysates and cytosolic fractions, Fig. S2) (from UniProt O60260 1-465)”, in assay [3], the binding entry is “binds”.

On to “PARK6 (endogenous, HEK 293 T cells) (from UniProt Q9BXM7 78-581)”, for which the binding result in [4], in assay [3] and in assay [1] was “binds” each time.

With “PSMA7 (endogenous, HEK 293 T cells) (from UniProt O14818 1-248)”, the binding result in [5] is reported as “binds weakly”; in [6] it was “binds”.

As to “PSMA7 (endogenous, MEF cells) (from UniProt Q9Z2U0 1-248)”, the binding result in [7] is “binds weakly”; in assay [8], “binds”.

Take “PSMA7 amino acids 174-248 (two-hybrid clone 47) (from UniProt O14818 174-248) (domain or fragment)”: the binding result in [9] was “binds”.

With “PSMA7, full length, overexpressed in HEK293T cells (Fig. S1A and B) (from UniProt O14818 1-248)”, in assay [10], the binding entry is on record as “binds”.

Consider “VDAC1 (endogenous, HEK 293 T cells) (from UniProt P21796 1-283)”, for which the binding result in assay [4] is “binds”.

As to YFP-PARK2 (from UniProt O60260 1-465), in [4], the binding result was “binds”.
